The test deals with recombinant His-tagged insect-cell expressed CCR5, detergent-solubilised (UniProt P51681). The experiment in a line: SPR; only the binder purified. (Surface plasmon resonance follows binding to a sensor surface in real time, without labels.)

Chains of the proteins cited; added tags and fusions are not shown.
UniProt P51681: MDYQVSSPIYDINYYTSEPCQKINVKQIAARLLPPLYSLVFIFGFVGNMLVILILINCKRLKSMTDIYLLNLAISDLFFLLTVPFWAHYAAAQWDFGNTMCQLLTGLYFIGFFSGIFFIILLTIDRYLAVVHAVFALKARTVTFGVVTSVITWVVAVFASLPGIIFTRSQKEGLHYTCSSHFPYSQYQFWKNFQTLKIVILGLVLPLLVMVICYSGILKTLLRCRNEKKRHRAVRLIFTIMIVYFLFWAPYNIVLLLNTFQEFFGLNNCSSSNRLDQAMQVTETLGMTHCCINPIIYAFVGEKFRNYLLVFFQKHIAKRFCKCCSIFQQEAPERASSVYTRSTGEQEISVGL
UniProt P43490: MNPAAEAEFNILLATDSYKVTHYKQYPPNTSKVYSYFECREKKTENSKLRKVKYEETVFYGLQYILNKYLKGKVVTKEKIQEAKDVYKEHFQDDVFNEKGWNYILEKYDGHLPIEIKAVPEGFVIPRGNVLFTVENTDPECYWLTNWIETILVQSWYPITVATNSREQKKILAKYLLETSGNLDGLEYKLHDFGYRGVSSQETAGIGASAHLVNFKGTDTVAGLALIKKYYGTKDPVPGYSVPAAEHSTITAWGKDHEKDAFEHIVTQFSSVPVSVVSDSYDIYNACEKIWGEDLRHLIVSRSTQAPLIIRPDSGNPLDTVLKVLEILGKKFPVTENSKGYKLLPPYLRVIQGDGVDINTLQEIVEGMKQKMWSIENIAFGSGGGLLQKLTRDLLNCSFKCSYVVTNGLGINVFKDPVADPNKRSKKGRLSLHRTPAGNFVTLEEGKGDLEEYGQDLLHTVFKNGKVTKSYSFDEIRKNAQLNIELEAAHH

These are yes or no findings as the source states them, for the method shown. Some entries that bind do so weakly or less than the wild type.

As for “visfatin (recombinant) (from UniProt P43490 1-491)”, the binding result is on record as “binds”.

The values are drawn from publication PMC3320877.
